Source: the supplement of paper PMC3047530
Some of the results follow. Repeats are few or missing, and single values can be far off.

test system: Geomyces destructans; test: growth inhibition relative to DMSO control; higher = stronger growth inhibition; settings: 10 µM; 15 °C; incubation time 10 days

Row | SMILES | growth inhibition
1 | CCOC(=O)NNc1nncc2ccccc12 | -4.94%
2 | Nc1ccn([C@@H]2O[C@H](CO)[C@@H](O)[C@@H]2O)c(=O)n1 | -9.22%
3 | CC1(C)[C@H]2CC[C@]1(C)C(=O)C2 | -3.93%
4 | O=C(O)[C@H](O)[C@@](O)(Cc1ccc(O)cc1)C(=O)O | -8.82%
5 | Nc1ccc(S(=O)(=O)Nc2ccccn2)cc1 | -1.25%
6 | CO[C@H]1C[C@H](O[C@H]2[C@H](C)[C@@H](O[C@@H]3O[C@H](C)C[C@H](N(C)C)[C@H]3O)[C@@H](C)C[C@@]3(CO3)C(=O)[C@H](C)[C@@H](O)[C@@H](C)[C@@H](C)OC(=O)[C@@H]2C)O[C@@H](C)[C@@H]1O | -30.9%
7 | CCOC(=O)c1c(C)cc(O)cc1O | -4.12%
8 | CN(C)CCCN1c2ccccc2Sc2ccc(Cl)cc21 | -3.41%
9 | O=c1ccc2ccccc2o1 | -4.29%
10 | CC1(C)C=Cc2cc3ccc(=O)oc3cc2O1 | -8.86%
11 | COc1cc([C@@H]2c3cc4c(cc3[C@@H](O[C@@H]3O[C@@H]5CO[C@@H](c6cccs6)O[C@H]5[C@H](O)[C@H]3O)[C@H]3COC(=O)[C@H]23)OCO4)cc(OC)c1O | -7.02%
12 | O=c1[nH]cnc2c1ncn2[C@@H]1O[C@H](CO)[C@@H](O)[C@H]1O | 0.578%
13 | CCN(CC)CCNc1ccc(CO)c2sc3ccccc3c(=O)c12 | -19.8%
14 | O=c1c(O)cc([C@H]2Oc3cc(O)cc(O)c3C[C@H]2O)cc2c([C@H]3Oc4cc(O)cc(O)c4C[C@H]3O)cc(O)c(O)c12 | -12.6%
15 | CN(Cc1cnc2nc(N)nc(N)c2n1)c1ccc(C(=O)N[C@@H](CCC(=O)O)C(=O)O)cc1 | 9.86%
16 | O=C(COc1ccc(Cl)cc1)N1CCN(Cc2ccc3c(c2)OCO3)CC1 | -0.242%
17 | O=C(O)CCCC[C@@H]1CCSS1 (racemic) | -13.2%
18 | COc1cc(-c2oc3cc(O)ccc3c(=O)c2O)cc(OC)c1OC | -15.7%
19 | Cc1ccsc1/C=C/C1=NCCCN1C | -10%
20 | CN(C)c1ccc(O)c2c1C[C@H]1C[C@H]3[C@H](N(C)C)C(O)=C(C(N)=O)C(=O)[C@@]3(O)C(O)=C1C2=O | -4.71%
21 | COc1cccc(OC)c1C(=O)N[C@@H]1C(=O)N2[C@@H]1SC(C)(C)[C@@H]2C(=O)O | -14.8%
22 | Cc1ccc(S(=O)(=O)NC(=O)NN2CCCCCC2)cc1 | -3.78%
23 | CC(C)CCCC(C)C1CCC2C3=CCC4CC(O)CCC4(C)C3CCC21C (centres undefined) | -6.28%
24 | CCOC(=O)c1ccc(N)cc1 | -32.3%
25 | CCN(CC)CCOC(=O)C(c1ccccc1)c1ccccc1 | -10.5%

Row | SMILES | growth inhibition
26 | CC(C)(C)CC(C)(C)c1ccc(O)c(Cc2ccc(Cl)cc2Cl)c1 | -0.324%
27 | COC(=O)[C@@H]1OC(=O)[C@H]2O[C@@]23[C@@]1(C)CCC1[C@@]2(C)CCC(=O)C(C)(C)C2C[C@@H](OC(C)=O)[C@]13C (some centres undefined) | -6.96%
28 | CCCCC1(COC(=O)CCC(=O)O)C(=O)N(c2ccccc2)N(c2ccccc2)C1=O | 0.66%
29 | COc1cc(NC(C)CCCN)c2ncccc2c1 (centres undefined) | -3.71%
30 | CN(C)[C@@H]1C(O)=C(C(N)=O)C(=O)[C@@]2(O)C(O)=C3C(=O)c4c(O)cccc4[C@@](C)(O)[C@H]3[C@H](O)[C@@H]12 | -31.9%
31 | COC1(C)CCC2OC2(C)CCC2C1CC2(C)C (centres undefined) | -5.08%
32 | NC(N)=Nc1nc(CSCC/C(N)=N/S(N)(=O)=O)cs1 | -30.7%
33 | Cc1cc(-c2ccccc2)nnc1NCCN1CCOCC1 | -6.98%
34 | COc1ccc(-c2cc(=O)c3c(OC(C)=O)cc(OC(C)=O)cc3o2)cc1 | 5.98%
35 | CC1=C(/C=C/C(C)=C/C=C/C(C)=C\C(=O)O)C(C)(C)CCC1 | -36.5%
36 | CC/C(=C(/CC)c1ccc(O)cc1)c1ccc(O)cc1 | -4.04%
37 | CSc1ccc2c(c1)N(CCC1CCCCN1C)c1ccccc1S2 (centres undefined) | -16%
38 | O=C(/C=C/c1ccc(O)c(O)c1)O[C@@H]1C[C@](O)(C(=O)O)C[C@@H](O)[C@H]1O | 8.93%
39 | CC12CCC3c4ccc(OCc5ccccc5)cc4CCC3C1C[C@@H](O)[C@@H]2O (some centres undefined) | -11.2%
40 | N=C(N)NCCN1CCCCCCC1 | 2.07%
41 | Cc1cc(=O)c2c(o1)-c1c(cc(O)c(O)c1C(=O)O)OC2 | -20.2%
42 | CC(CN(C)C)CN1c2ccccc2Sc2ccccc21 (centres undefined) | -25.4%
43 | CC1(C)[C@@H](OC(=O)CCC(=O)O)CC[C@]2(C)[C@H]3C(=O)C=C4[C@@H]5C[C@@](C)(C(=O)O)CC[C@]5(C)CC[C@@]4(C)[C@]3(C)CC[C@@H]12 | -11.2%
44 | COc1cc(O)ccc1C(C)=O | -18.4%
45 | COc1ccc(-c2cc(=O)c3ccccc3o2)cc1OC | -10.2%
46 | CC(=O)OCC(=O)[C@H]1CC[C@H]2[C@@H]3CCC4=CC(=O)CC[C@]4(C)[C@H]3CC[C@]12C | -32.3%
47 | Nc1ccccc1C(=O)CC(N)C(=O)O (centres undefined) | 11.9%
48 | CC[C@@H](CO)NCCN[C@@H](CC)CO | 4.21%
49 | CC1(C)Oc2ccc3ccc(=O)oc3c2CC1O (centres undefined) | -4.14%
50 | NC(=O)c1cccc(N)c1 | -15%

Row | SMILES | growth inhibition
51 | COc1ccc2oc3ccccc3c(=O)c2c1 | -17.2%
52 | Cc1cc(O)c2c(O)c3c(O)cccc3cc2c1 | -7.99%
53 | C=CCSCC1Nc2cc(Cl)c(S(N)(=O)=O)cc2S(=O)(=O)N1 (centres undefined) | -17.8%
54 | CC(=O)c1ccc(O)c(CC=C(C)C)c1 | 17%
55 | c1ccc(CN(CC2=NCCN2)c2ccccc2)cc1 | -42.7%
56 | N[C@@H](C(=O)O)[C@@H](O)[C@H](O)[C@H](O)CO | -7.78%
57 | COc1c(N2CCNC(C)C2)c(F)cc2c(=O)c(C(=O)O)cn(C3CC3)c12 (centres undefined) | -43.7%
58 | O=C(c1ccccc1)c1ccc2n1CCC2C(=O)O (centres undefined) | -3.34%
59 | OCc1ccccc1O | -17.1%
60 | CC1(C)CC2C1CCC1(C)OC2(C)CCC1O (centres undefined) | -20.9%
61 | CN1Cc2c(N)cccc2C(c2ccccc2)C1 (centres undefined) | -2.37%
62 | COc1ccccc1OCC(O)COC(N)=O (centres undefined) | 43.3%
63 | Nc1c2c(nc3ccccc13)CCCC2O (centres undefined) | -2.54%
64 | Cc1cc(N)c2ccccc2[n+]1CCCCCCCCCC[n+]1c(C)cc(N)c2ccccc21 | 82.4%
65 | CNc1ccccc1C(=O)N1CCc2c([nH]c3ccccc23)C1=O | -4.45%
66 | COc1ccc2c(=O)c(CC(=O)O)coc2c1 | -8.34%
67 | COc1ccc2cc(C(C)C(=O)O)ccc2c1 (single isomer, unassigned; (+)) | -0.0519%
68 | NCCNC(=O)c1ccc(Cl)cc1 | -12.2%
69 | N=C(N)NC(=O)c1nc(Cl)c(N)nc1N | -38.5%
70 | CC(=O)O[C@H]1CC[C@]2(C)C(C[C@@H](OC(C)=O)[C@]3(C)C4=CC(=O)O[C@H](c5ccoc5)[C@@]4(C)CCC23)C1(C)C (stereo partly drawn) [3-DEOXO-3beta-ACETOXYDEOXYDIHYDROGEDUNIN] | -9.65%
71 | NC1(C(=O)O)CCC1 | -38.6%
72 | CC(CN1c2ccccc2Sc2cccnc21)N(C)C (centres undefined) | -3.21%
73 | CCC1(O)CC(OC2CC(N(C)C)C(OC3CC(O)C(OC4CCC(=O)C(C)O4)C(C)O3)C(C)O2)c2c(cc3c(c2O)C(=O)c2c(O)cccc2C3=O)C1C(=O)OC (centres undefined) | -12.7%
74 | CC(C)(O)[C@H]1CC[C@]2(C)[C@H]3CC[C@@H]4[C@@]5(C)CCCC(C)(C)[C@@H]5[C@@H](O)C[C@@]4(C)[C@]3(C)CC[C@@H]12 | -4.24%
75 | COc1cccc(OC)c1OCCNCC1COc2ccccc2O1 (centres undefined) | -37%

Row | SMILES | growth inhibition
76 | CCCCC1=NC2(CCCC2)C(=O)N1Cc1ccc(-c2ccccc2-c2nnn[nH]2)cc1 | -6.39%
77 | CC[C@H]1OC(=O)[C@H](C)[C@@H](O[C@H]2C[C@@](C)(OC)[C@@H](O)[C@H](C)O2)[C@H](C)[C@@H](O[C@@H]2O[C@H](C)C[C@H](N(C)C)[C@H]2O)[C@](C)(OC)C[C@@H](C)C(=O)[C@H](C)[C@@H](O)[C@]1(C)O | -13.4%
78 | CCCCOC(=O)c1ccc(N)cc1 | -11%
79 | CC1=CC2C(C(C)C)CCC(C)(O)C2CC1 (centres undefined) | -7.2%
80 | C=NC(C(=O)NC1C(=O)N2C1SC(C)(C)C2C(=O)O)c1ccccc1 (centres undefined) | -35.5%
81 | CC(C)COCC(CN(Cc1ccccc1)c1ccccc1)N1CCCC1 (centres undefined) | -6.3%
82 | CCC(CCC(C)C1CCC2C3CCC4CC(O)CCC4(C)C3CCC12C)C(C)C (centres undefined) | 1.15%
83 | CCOc1ccc2c(c1)C(C)=CC(C)(C)N2 | -7.38%
84 | C#CCCCCCCCCCCCC(O)CC(O)CO.C=CCCCCCCCCCCCC(O)CC(O)CO (centres undefined) | 2.6%
85 | CCOC(=O)[C@H](CCc1ccccc1)N[C@@H](C)C(=O)N1[C@H](C(=O)O)C[C@@H]2CCC[C@@H]21 | -24.2%
86 | NS(=O)(=O)c1cc2c(cc1Cl)N=CNS2(=O)=O | -4.74%
87 | O=c1c(O)c(-c2ccc(O)c(O)c2)oc2cc(O)ccc12 | -38.6%
88 | CN[C@H](CC(C)C)C(=O)N[C@H]1C(=O)N[C@@H](CC(N)=O)C(=O)N[C@H]2C(=O)N[C@H]3C(=O)N[C@H](C(=O)N[C@H](C(=O)O)c4cc(O)cc(O)c4-c4cc3ccc4O)[C@H](O)c3ccc(c(Cl)c3)Oc3cc2cc(c3O[C@@H]2O[C@H](CO)[C@@H](O)[C@H](O)[C@H]2O[C@H]2C[C@](C)(N)[C@H](O)[C@H](C)O2)Oc2ccc(cc2Cl)[C@H]1O | -16.4%
89 | O=C(O)c1cc2cc(Cl)ccc2[nH]1 | -26.1%
90 | Cc1cc(C2CCCCC2)n(O)c(=O)c1 | 85.7%
91 | CC(=O)Oc1cc(C)c2c(c1C(OC(C)=O)OC(C)=O)Oc1c(c(C)c(OC(C)=O)c3c1C(OC(C)=O)OC3=O)OC2=O (centres undefined) | -8.34%
92 | COc1ccc2ccc(=O)oc2c1 | 2.91%
93 | NS(=O)(=O)c1cc(C(=O)O)c(NCc2ccco2)cc1Cl | 18.9%
94 | Cc1c(C(N)=O)cc([N+](=O)[O-])cc1[N+](=O)[O-] | -8.62%
95 | C=C[C@H]1CN2CC[C@H]1C[C@@H]2[C@@H](O)c1ccnc2ccc(OC)cc12 | -19.6%
96 | C[C@]12CC[C@H]3C(=CCc4cc(O)ccc43)[C@@H]1CCC2=O | 13.1%
97 | N=C(N)N | -7.71%
98 | CN1C(C(=O)Nc2ccccn2)=C(O)c2sccc2S1(=O)=O | -20.5%
99 | CC(=O)Oc1ccc2c(c1)CC[C@@H]1[C@@H]2CC[C@]2(C)[C@@H](OC(C)=O)CC[C@@H]12 | -9.58%

As entered above:
Value for C#CCCCCCCCCCCCC(O)CC(O)CO.C=CCCCCCCCCCCCC(O)CC(O)CO (centres undefined) under growth inhibition: 2.6%
Value for CC(=O)Oc1cc(C)c2c(c1C(OC(C)=O)OC(C)=O)Oc1c(c(C)c(OC(C)=O)c3c1C(OC(C)=O)OC3=O)OC2=O (centres undefined) under growth inhibition: -8.34%
Value for O=C(O)c1cc2cc(Cl)ccc2[nH]1 under growth inhibition: -26.1%
Value for CC[C@H]1OC(=O)[C@H](C)[C@@H](O[C@H]2C[C@@](C)(OC)[C@@H](O)[C@H](C)O2)[C@H](C)[C@@H](O[C@@H]2O[C@H](C)C[C@H](N(C)C)[C@H]2O)[C@](C)(OC)C[C@@H](C)C(=O)[C@H](C)[C@@H](O)[C@]1(C)O under growth inhibition: -13.4%
Value for C=C[C@H]1CN2CC[C@H]1C[C@@H]2[C@@H](O)c1ccnc2ccc(OC)cc12 under growth inhibition: -19.6%
